# Test results as given in PubChem BioAssay AID540256 (National Center for Advancing Translational Sciences (NCATS), 2011).
# Among all 300,000 compounds or so, about 3,700 (1.2%) were called active. The inconclusive results got no clear call from the source; some entries with a clear call stand among them for comparison. Calls come from the whole dose curve; tested in HEK293 cells. Where the call is inconclusive, the potency comes from a doubtful curve fit.
# Assay: qHTS for Inhibitors of binding or entry into cells for Lassa Virus; note: nearly all actives have a fitted effect of over 50% in size
# Details: Lassa virus pseudotype entry inhibition, cell reporter; activity change, negative = inhibition: at 37.9 µM (top of the series) unless noted
# % is set by controls: 0 for no effect and ±100 for the full control effect; potency is the fitted concentration of half-maximal effect.
SMILES,"activity change, negative = inhibition",Potency
CC(C)(C)c1nc2ccc(NS(=O)(=O)c3ccc(F)c(F)c3F)cc2[nH]1,inactive: -11.8%,
O=C(Nc1c(F)cc(F)cc1F)c1cccn(Cc2ccccc2)c1=O,,"inconclusive: 31.6 µM [inhibitor, partial curve, poor fit]"
COc1ccccc1N(C)S(=O)(=O)c1ccc(C(=O)NC2CCCCCC2)cc1,,"inconclusive: 12.6 µM [inhibitor, single point]"
Cn1c(=O)c2c(nc(N3CCN(c4ccccn4)CC3)n2Cc2ccccc2Cl)n(C)c1=O,,active: 20.6 µM
CCCCN(C)C(=O)c1nc2ccccn2c1CN1CCC[C@H]1CO,inactive: -1.09% [at 46.1 µM],
CCC(=O)Nc1nc(C)c(-c2csc(Nc3ccccn3)n2)s1,,"inconclusive: 11.2 µM [inhibitor, partial curve, poor fit]"
O=C1C2C(c3ccccc3)C=CC(c3ccccc3)C2C(=O)N1CCO (stereo not given),,"inconclusive: 0.116 µM [inhibitor, full curve, poor fit]"
O=S(=O)(NCCc1ccccc1)c1ccc(Br)s1,inactive: 6.13%,
c1cnc2c(OCc3nc4ccccc4[nH]3)cccc2c1,inactive: 18%,
C=C1SC(Nc2c(C)cccc2C)=NC12CCCCC2,,"inconclusive: 22.4 µM [inhibitor, single point]"
O=C(NCc1ccc(F)cc1)C(=O)NCC(c1cccs1)S(=O)(=O)c1cccs1 (stereo not given),inactive: -5.1% [at 46.1 µM],
Cc1nn2c(-c3cccnc3)ccnc2c1-c1ccccc1,inactive: 17.2%,
CC(/C=N/NC(=O)c1cnccn1)=C\c1ccco1,inactive: 1.19%,
C/C(CC(=O)NC1CCCCC1)=N\NC(=O)c1ccccn1,inactive: 20.4%,
CC(C)(C)c1ccc(OCCN2CCCC2)cc1,,"inconclusive: 8.2 µM [inhibitor, partial curve]"
N/C(=N/OC(=O)c1ccccc1Cl)c1ncc([N+](=O)[O-])s1,,"inconclusive: 14.1 µM [inhibitor, partial curve, poor fit]"
CN(C1(C)CCS(=O)(=O)C1)S(=O)(=O)c1ccc2ccccc2c1 (stereo not given),,"inconclusive: 35.5 µM [inhibitor, single point]"
Cc1c(C(=O)N2CCN(S(=O)(=O)c3ccccc3)CC2)oc2ccccc12,inactive: 3.41%,
CCCCOc1ccc(C(=O)NCCc2csc(-c3ccc(OC)cc3)n2)cc1,,"inconclusive: 20 µM [inhibitor, single point]"
COc1ccc(N(CC(=O)Nc2c(C)cccc2C)S(=O)(=O)c2ccccc2[N+](=O)[O-])c(OC)c1,,"inconclusive: 10 µM [inhibitor, partial curve, poor fit]"
CCOC(=O)C=CCCCC=CC(=O)c1ccccc1,,"inconclusive: 2.66 µM [inhibitor, partial curve, poor fit]"
COc1ccc(-c2csc(N3CCOCC3)n2)cc1OC,,"inconclusive: 4.47 µM [activator, partial curve, poor fit]"
CCc1ccc(/C=c2\s/c(=C\C(=O)C(C)(C)C)[nH]c2=O)cc1,,"inconclusive: 8.91 µM [inhibitor, partial curve, poor fit]"
CCC(C(=O)NCCc1cc(OC)ccc1OC)n1nc(C)c2sc3ccccc3c2c1=O (stereo not given),inactive: 1.44% [at 46.1 µM],

# Five entries from above, with tabs:
SMILES	activity change, negative = inhibition	Potency
CC(C)(C)c1nc2ccc(NS(=O)(=O)c3ccc(F)c(F)c3F)cc2[nH]1	inactive: -11.8%	
O=C(Nc1c(F)cc(F)cc1F)c1cccn(Cc2ccccc2)c1=O		inconclusive: 31.6 µM [inhibitor, partial curve, poor fit]
N/C(=N/OC(=O)c1ccccc1Cl)c1ncc([N+](=O)[O-])s1		inconclusive: 14.1 µM [inhibitor, partial curve, poor fit]
CN(C1(C)CCS(=O)(=O)C1)S(=O)(=O)c1ccc2ccccc2c1 (stereo not given)		inconclusive: 35.5 µM [inhibitor, single point]
CCc1ccc(/C=c2\s/c(=C\C(=O)C(C)(C)C)[nH]c2=O)cc1		inconclusive: 8.91 µM [inhibitor, partial curve, poor fit]

# More records.

SMILES,"activity change, negative = inhibition",Potency
Cn1c(N2CCN(C(c3ccccc3)c3ccccc3)CC2)nc2c1c(=O)[nH]c(=O)n2C,,"inconclusive: 3.98 µM [inhibitor, single point]"
COc1cccc(NC(=O)CCC2CCN(Cc3nccs3)CC2)c1,inactive: -21.1%,
CN1CCN(C2=Cc3ccc(Cl)cc3Sc3ccc(F)cc32)CC1,,"inconclusive: 14.1 µM [inhibitor, single point]"
CCCCn1c(O)c(C(CC)=NC(C)c2ccccc2)c(=O)[nH]c1=O (stereo not given),,"inconclusive: 16.4 µM [inhibitor, partial curve, poor fit]"
COc1cc(Cl)c(CN2CCCC(CO)(Cc3ccccc3)C2)cc1OC (stereo not given),,"inconclusive: 14.1 µM [inhibitor, single point]"
CCCCC(=O)N/N=C/c1ccc(N2CCOCC2)c([N+](=O)[O-])c1,inactive: -9.86%,
CC(Oc1ccccc1Cl)C(=O)Nc1ccc(S(=O)(=O)N2CCN(C)CC2)cc1 (stereo not given),,"inconclusive: 35.5 µM [inhibitor, single point]"
COc1ccc(-c2cc(=O)[nH]c(N3CCN(Cc4ccccc4)CC3)n2)cc1,,"inconclusive: 1.58 µM [inhibitor, full curve, poor fit]"
Cc1ccc(C)c(N2CCN(C(=O)C3CCN(S(=O)(=O)c4cccc5nsnc45)CC3)CC2)c1,,"inconclusive: 35.5 µM [inhibitor, partial curve, poor fit]"
COc1cccc(-c2nc(N3CC(C)CC(C)C3)c3ccccc3n2)c1O (stereo not given),,"inconclusive: 14.1 µM [inhibitor, single point]"
CC1CCCCC1NC(=O)COCc1cc(-c2cccs2)on1 (stereo not given),,"inconclusive: 7.94 µM [inhibitor, partial curve, poor fit]"
Cc1cc(OCCOc2cccc3cccnc23)cc(C)c1Cl,,"inconclusive: 17.8 µM [activator, single point]"
COc1ccc(CCNC(=O)c2cc3c(=O)n4cccc(C)c4nc3n(Cc3ccco3)c2=N)cc1OC,inactive: 6.26%,
Cc1cc(C)nc(N/N=C/C2=C(N3CCOCC3)C(=C/c3ccccc3)/CC2)n1,,"inconclusive: 17.8 µM [inhibitor, single point]"
CCOC(=O)c1cccc(NC(=O)c2nn(-c3ccc(OC)cc3)c(=O)c3c2c2ccccc2n3C)c1,,"inconclusive: 10 µM [activator, partial curve, poor fit]"
O=S(=O)(Cc1ccc(Cl)cc1)Nc1ccc(Cl)cn1,inactive: 10.4%,
CCOC(=O)c1sc(=NC(=O)c2cccc(OC)c2)n(C)c1C,inactive: 20.8%,
Oc1oc(-c2cccc3ccccc23)nc1/C=N/c1nccs1,inactive: 21.9%,
CN(C)CCNC(=O)c1ccc2c(=O)n(Cc3ccc(Cl)cc3)c(=S)[nH]c2c1,,"inconclusive: 10 µM [inhibitor, partial curve, poor fit]"
CC(=O)c1ccc(NS(=O)(=O)c2ccc3[nH]c(=O)[nH]c3c2)cc1,inactive: 17.8% [at 46.1 µM],
Fc1ccc(-c2cn3cc(C(F)(F)F)cc(Cl)c3n2)cc1,,"inconclusive: 20.6 µM [inhibitor, single point]"
Nc1nc(Nc2ccc(Cl)cc2)nc2ccccc12,,"inconclusive: 0.398 µM [inhibitor, full curve, poor fit]"
CCOc1ccccc1NC(=O)c1ccccc1-c1nc(-c2ccccc2OC)no1,,"inconclusive: 35.5 µM [inhibitor, single point]"
COc1ccc(CC2(CO)COc3ccccc3C2=O)cc1 (stereo not given),inactive: -13%,

SMILES,"activity change, negative = inhibition",Potency
CCOc1cc(C(=O)Nc2ccc3nc(N4CCN(C)CC4)cc(C)c3c2)cc(OCC)c1OCC,inactive: -20.2% [at 46.1 µM],
CCOc1ccc(C(=O)CCC(=O)Nc2cccc(S(=O)(=O)N3CCCCC3)c2)cc1,,active: 10 µM
COc1cc(N2CCN(C(C)C)CC2)ccc1Nc1nc(Nc2cccc3ncccc23)c2cc[nH]c2n1,,active: 19.9 µM
CC(NC(=O)OC(C)(C)C)C(=O)N1CCCC1C(=O)NC(Cc1ccccc1)C(N)=O (stereo not given),inactive: 9.09%,
O=C(NCCCN1CCOCC1)c1cc(-c2ccccc2)nc2ccccc12,inactive: 0.433% [at 46.1 µM],
CCOC(=O)c1scc(-c2ccc(C)cc2)c1S(=O)(=O)N1CCN(c2ccccc2)CC1,inactive: 6.97% [at 46.1 µM],
Cc1oc(-c2ccccc2Cl)nc1CSCC(=O)NC1CC1,,"inconclusive: 23.1 µM [inhibitor, single point]"
N#C/C(=C\c1ccc(N2CCOCC2)c([N+](=O)[O-])c1)c1nc2ccccc2[nH]1,,"inconclusive: 12.6 µM [inhibitor, partial curve, poor fit]"
CCC(C)NC(=O)c1ccc(COc2ccccc2Cl)cc1 (stereo not given),inactive: -0.183%,
Cc1nn2c(C)c(C(=O)NCc3cccc(Br)c3)cnc2c1-c1ccccc1,,"inconclusive: 15.8 µM [activator, single point]"
Cc1ccc(-c2nnc(Nc3ccc(O)cc3)c3ccccc23)cc1S(=O)(=O)NC(C)(C)CO,inactive: 11.9% [at 46.1 µM],
Cc1ccc(Nc2nc(CSc3nnnn3-c3ccccc3)cs2)cc1,,"inconclusive: 22.4 µM [inhibitor, single point]"
Cc1cccn2cc(-c3cccc(NC(=O)c4cccs4)c3)nc12,inactive: 28.8%,
CCOc1ccc(C(=O)NCC(c2ccc3c(c2)OCO3)N2CCN(C)CC2)cc1 (stereo not given),inactive: -8.91% [at 46.1 µM],
CC(C)(C)n1nnnc1C(c1cccs1)N(Cc1ccc(Cl)cc1)CC1CCCO1 (stereo not given),,"inconclusive: 29.1 µM [inhibitor, single point]"
Cc1ccc(NC(=O)c2cc(NC(=O)c3ccco3)ccc2N2CCOCC2)cc1,,"inconclusive: 9.2 µM [inhibitor, partial curve]"
O=C(O)c1ccc(N/N=C/c2ccc(C(F)(F)F)cc2)cc1,,active: 1.26 µM
CC1(C(=O)NCc2ccccc2)Oc2ccccc2NC1=O (stereo not given),,"inconclusive: 35.5 µM [activator, single point]"
Cc1cccc(Oc2cc(NC(=O)Cn3cnc([N+](=O)[O-])n3)cc([N+](=O)[O-])c2)c1,,"inconclusive: 20.6 µM [inhibitor, single point]"
O=C(NC1CCCCC1)C(c1ccncc1)N(C(=O)Cn1nnc(-c2cccs2)n1)C1CCCC1 (stereo not given),,"inconclusive: 7.3 µM [inhibitor, partial curve, poor fit]"
COc1ccc(Nc2cc(C)c3cc(NC(=O)COc4cccc(C)c4)ccc3n2)cc1,,"inconclusive: 35.5 µM [inhibitor, single point]"
C/C(=N\OC(=O)NC1CCCCC1)c1sc(-c2ccccc2)nc1C,,"inconclusive: 29.1 µM [inhibitor, single point]"
